Where a name gives a salt, the structure may show the parent alone. The list shows a part of the results. The calls rarely recur for the same compound in another form.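 Kinases were expressed as nanoluciferase fusions in K562 cells and luminescence was read every 4 h between 2 and 18 h as percent of control, DMSO set to 100% and a positive control to 0%. A time point counts as decreased when the signal drops significantly (2 sigma). The hit call is the authors' own, does not follow from the count of time points alone, and its rule is not shown.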
target: ULK3 (UniProt Q6PHR2); assay: number of time points (of 5) at which kinase-Nluc abundance scored as decreased, DMSO-normalised (count); higher = more persistent destabilization; conditions: K562; 2-18 h

Amino acid sequences for entries named in this document (tags omitted). A change or cut given only in a name is not applied to a line headed by its entry.
UniProt Q6PHR2: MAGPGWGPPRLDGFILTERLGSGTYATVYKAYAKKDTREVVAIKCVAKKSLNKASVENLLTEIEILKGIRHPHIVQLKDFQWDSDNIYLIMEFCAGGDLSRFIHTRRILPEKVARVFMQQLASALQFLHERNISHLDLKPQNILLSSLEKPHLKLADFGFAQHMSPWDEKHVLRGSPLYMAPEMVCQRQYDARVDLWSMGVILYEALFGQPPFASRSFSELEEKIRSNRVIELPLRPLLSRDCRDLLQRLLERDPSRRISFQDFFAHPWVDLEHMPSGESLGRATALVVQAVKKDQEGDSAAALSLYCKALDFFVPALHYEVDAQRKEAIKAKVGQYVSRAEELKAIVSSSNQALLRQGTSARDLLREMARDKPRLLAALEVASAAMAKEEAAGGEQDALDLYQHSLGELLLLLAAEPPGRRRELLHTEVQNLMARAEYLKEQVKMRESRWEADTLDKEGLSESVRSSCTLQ

SMILES | number of time points
O=C(Nc1cccnc1)c1cc(-c2ccnc(F)c2)ccc1OCc1ccccc1 (10 µM) | 0
COc1c(O)cc2oc(-c3ccc(O)cc3)cc(=O)c2c1O [Hispidulin] (10 µM) | 1
O=C1CC[C@H](NC(=O)Cc2ccccc2)C(=O)N1 [Antineoplaston A10] (10 µM) | 0
CC(C)Oc1ccc(F)c(-c2cnc(N)c(C(=O)Nc3cnccc3N3CCC[C@@H](C(=O)O)C3)n2)c1 (2 µM) | 0
Nc1nc2c(nc(Br)n2[C@@H]2O[C@@H]3COP(=O)(O)O[C@H]3[C@H]2O)c(=O)[nH]1 [8-Bromo-cGMP (sodium)] (10 µM) | 0
Cc1cc(-n2c(=O)ccc3c[nH]c4nccc-4c32)ccc1F (10 µM) | 0
CO[C@H]1CC[C@H](N2C(=O)CNc3ncc(-c4ccc(C(C)(C)O)nc4)nc32)CC1 (2.5 µM) | 0
COc1cc2c(cc1OC)/C(=C/c1ccc(O)cc1)C(=O)N2 (10 µM) | 0
NCCOc1ccc(Cl)cc1C(=O)Nc1ccc([N+](=O)[O-])cc1Cl [HJC0152 hydrochloride] (2 µM) | 0
CCN(CC)CCOc1ccc(Nc2nc(-c3ccccc3NC(=O)CCN3CCN(C)CC3)nc3ccccc23)cc1 (2.5 µM) | 0
C=CC(=O)N1CCN(C(=O)CNc2cc(I)c(Cl)cc2O)CC1 [K-Ras(G12C) inhibitor 12] (10 µM) | 3
N[C@@H]1CCCN(c2c(/C=C3\SC(=O)NC3=O)cccc2-c2ccccc2)C1 (10 µM) | 0
O=C(Nc1cc(Cl)cc2c1[nH]c1cnccc12)c1cccnc1 (10 µM) | 0
C=C1C(=O)[C@@]23[C@H](O)C[C@@H]4C(C)(C)C(=O)CC[C@@]4(C)[C@@H]2CC[C@@H]1[C@H]3O [Glaucocalyxin A] (2.5 µM) | 0
C[C@@H]1O[C@@H](Oc2cc(O)c3c(=O)c(O[C@@H]4O[C@@H](C)[C@H](O)[C@@H](O)[C@H]4O)c(-c4ccc(O)cc4)oc3c2)[C@H](O)[C@H](O)[C@H]1O [Kaempferitrin] (10 µM) | 0
Cc1c(C(=O)Nc2ccc(Oc3ccnc4[nH]cc(-c5ccccc5)c34)c(F)c2)c(=O)n(-c2ccc(F)cc2)n1C (10 µM) | 0
c1nc2c(NC3CCCCC3)nc(Nc3ccc(N4CCOCC4)cc3)nc2[nH]1 [Reversine] (10 µM) | 0
CN1CCN(c2ccc(Nc3ncc4cc(C#N)c(=O)n(C5CCCC5)c4n3)cc2)CC1 (10 µM) | 0
NC[C@@](O)(c1ccc(Cl)cc1)c1ccc(-c2cn[nH]c2)cc1 (10 µM) | 0
Cc1ccc(-n2nc(C(C)(C)C)cc2NC(=O)Nc2ccc(OCCN3CCOCC3)cc2)cc1 (10 µM) | 0
c1ccc(Cn2c(-c3ccc(OC[C@H](C4CCNCC4)n4c(-c5ccccc5)nc5ccccc54)cc3)nc3ccccc32)cc1 [Deltarasin] (2.5 µM) | 0
C=CC(=O)N1CC[C@@H](Oc2nc(Nc3ccc(N4CCC(N5CCN(C)CC5)CC4)cc3)c(C(N)=O)nc2CC)C1 [Naquotinib (mesylate)] (2.5 µM) | 0
Cc1cc(O)c2c(c1)C(=O)c1cccc(O)c1C2=O [Chrysophanol] (2 µM) | 0
Cc1cc(C(=O)NC(C)(C)C)cc(C#Cc2ccc3c4c(oc3c2)C(C)(C)c2cc(NS(C)(=O)=O)ccc2C4=O)n1 (10 µM) | 0
Nc1nc(NCCNc2ncc(-n3ccnc3)c(-c3ccc(Cl)cc3Cl)n2)ccc1[N+](=O)[O-] (2.5 µM) | 0
Cn1c(CNc2cccc(C(=O)NCc3ccccc3C(F)(F)F)c2)nnc1-c1ccncc1 (10 µM) | 0

In a second layout: entries from further up.
SMILES	number of time points
CC(C)Oc1ccc(F)c(-c2cnc(N)c(C(=O)Nc3cnccc3N3CCC[C@@H](C(=O)O)C3)n2)c1 (2 µM)	0
Nc1nc2c(nc(Br)n2[C@@H]2O[C@@H]3COP(=O)(O)O[C@H]3[C@H]2O)c(=O)[nH]1 [8-Bromo-cGMP (sodium)] (10 µM)	0

— the supplement of paper PMC12823440, “Inhibitors supercharge kinase turnover through native proteolytic circuits” (Nature, 2025)
